Data taken from paper PMC10163288.
This is one part of the list.

B1: il2ra_site1_2b5i_sap_9_mot_HHH_b1_07759_af2_000000221_0001_42_56_H_._HHH_b2_06866_af2_0001_0000600029_0000001_0_0001_af2pred_dldesign_0_af2pred (protein)
chain: SSSSSSSYRELVEALIEKAKKEEDPLLRNKILTLARRVARKGEDPELIARVEALREELSSSSSSS
B2: il2ra_site1_1z92_normal_mot_0d89ad2be31940e41b8548213a5e2889_0001_000000090_0001_19_33_H_._0157305b669e031816377e0677f95be5_0001_af2_0001_0000300022_0000001_0_a … (protein)
chain: SEVAELIEKALEEKDPRLLEEAVKILAEKLNIPPEKAKRFLERLIKVNHPPEEQEILEELAKRVP
B3: il2ra_site2_3nfp_sap_17_mot_0136b98644bc9a8eb58b95019b738ebb_0001_1_000000071_0001_1_13_H_._HHH_b1_06685_af2_0001_0000200005_0000001_1_0001 (protein)
chain: SSSSSELEEYIRAALALLRLAIEEGDPFAARELIEAIRAAVEAAGNEELERELEELEEELDSSSS
B4: il2ra_site2_2erj_sap_1_mot_09e7cb7e633bb54c4420ff763e5edef5_0001_000000268_0001_36_50_H_._HHH_b2_05571_0001_0000200008_0000001_0_0001_af2pred_0001_af2pred (protein)
chain: SSSSDLKERVLRLAEEVEELLKRGDEEEAERVIEEIEELAEKRKSPSLRLALEHAREALKTSSSS
B5: il2ra_site1_3nfp_normal_mot_HHH_b2_02066_af2_000000034_0001_1_16_H_._HHH_b2_03896_af2_0001_0000500054_0000001_0_af2pred_0001_af2pred_1 (protein)
chain: SSSSSELAKRIQELLEQVRELKRNGNPEEAREVLEEARKLAEELGDEAAKRLIERIEKALNSSSS
B6: il2ra_site1_3nfp_sap_13_mot_311205a5f7018ed2e03f51fd3ffd5b95_0001_af2_000000228_0001_32_48_H_._c607dfab87a151aea9e7d1f821f406b9_0001_0001_0000200009_0000001_1_0 … (protein)
chain: SSDEYFERLVERVTKLAEEKNDEEVEELAKRALELWKEALENQDSEAADEAIRIVARLQNRVQSS
B7: il2ra_site1_3nfp_normal_mot_3a6c29ce16e7a142d506a79bd9648f85_0001_1_af2_000000100_0001_17_31_H_._1b0870e2a35aab0289d4b93f27226a6f_0001_af2_0001_0000800013_00000 … (protein)
chain: TAVERLVRLLAKDGVPPEEIAERLYEDAEKVGNLEALEEELEELVKKTGDPTLKRILEVLEELVR
B8: il2ra_site2_2erj_sap_16_mot_HHH_b2_01090_af2_000000277_0001_23_39_H_._bd5262115ee662b976c7de79e023da4f_0001_1_0001_0000200007_0000001_0_0001 (protein)
chain: SSSSSSAMEAFRIVSELTEEFNLDWKQAHALFELAKRLLEEGFSEEEIREILEELAERLSSSSSS
B9: il2ra_site1_2b5i_normal_mot_a7d4ab743ae57deeac5d741f7278d18b_0001_af2_000000162_0001_36_49_H_._HHH_b1_06628_af2_0001_0000100003_0000001_0_af2pred_dldesign_0_af2 … (protein)
chain: SSSSDPAAEALAETVAALRAAAAAGDEVLLHKVLKLGLKRLRRLGAPEAAAALEALAAELSSSSS
B10: il2ra_site2_2erj_sap_15_mot_HHH_b1_03833_000000078_0001_1_20_H_._HHH_b2_04583_af2_0001_0000400022_0000001_0_0001 (protein)
chain: SSSSDELHELYELANRIMHALANNDEEKVRELLEELRELIERFDSTTAREILETLEKHLGSSSSS
B11: il2ra_site2_3nfp_sap_11_mot_HHH_b2_05877_000000116_0001_23_40_H_._HHH_b1_03602_0001_0000300025_0000001_0_0001_af2pred_0001_af2pred (protein)
chain: SSSSSDDVEYAVNYAAALLQAGLVDEELAKRAAEFALKQLGVSEEEIEEAKEKIEEVARRSSSSS
B12: il2ra_site1_3nfp_sap_19_mot_HHH_b2_06897_000000190_0001_40_57_H_._71be647701ff1b2f9c0375d933d1ad3f_0001_0001_0000300018_0000001_0_0001 (protein)
chain: DKQLEERLERLLGDPEKAREVLRLIVRIAVEHNVPPREAVEILIEEAKEEGDELTLKAAELLLRF
B13: il2ra_site1_3nfp_normal_mot_HHH_b2_02552_af2_000000235_0001_1_20_H_._HHH_b1_03251_af2_0001_0000100005_0000001_0_af2pred_0001_af2pred_1_swapped (protein)
chain: SSSSDEESEEFLEEVKEQLEELLRRGDIREASEVVERAIRFLQKKGNPELVEELLKFAHELSSSS
B14: il2ra_site1_1z92_sap_13_mot_HHH_b2_03060_000000008_0001_1_18_H_._HHH_b1_00868_0001_0000100010_0000001_0_0001_af2pred_0001_af2pred_1 (protein)
chain: DEVLERDLRQAEKAGIPPEDAVRAVIRALAFHLRVPPEEAAEILLEILEKLGDPELAEIARELTP
B15: il2ra_site1_2b5i_sap_11_mot_HHH_b1_03854_af2_000000091_0001_42_55_H_._HHH_b2_01249_af2_0001_0000100007_0000001_0_0001_af2pred_0001_af2pred_1 (protein)
chain: SSSSNERREEALELFKRANELLRNGNPEEAHELLEEAAELARELGNRSLLKAIELALRQFESSSS
B16: il2ra_site2_2erj_sap_21_mot_HHH_b2_08311_000000098_0001_42_56_H_._HHH_b1_01434_af2_0001_0000100002_0000001_0_0001 (protein)
chain: SSSDREELEEVLRLIEEALEEGDAEALNKLIRRAIELVQRVNDPELFRILWELLREIHEKLSSSS
B17: il2ra_site1_3nfp_sap_10_mot_d8099cd8ef6a59b9c03de2010570d688_0001_af2_000000259_0001_37_51_H_._HHH_b1_03897_0001_0000100001_0000001_0_0001 (protein)
chain: SSSSSLHFVERDLEKLAKRGNEELVRRLLERFARDAERSGNPEAAEKLEEFAERVLEEAKSSSSS
B18: il2ra_site2_2erj_normal_mot_HHH_b1_06099_000000027_0001_20_36_H_._b0b48449b8979d840ab1151e5fe11a36_0001_af2_0001_0000600021_0000001_0 (protein)
chain: DEELEELAQLLRRGDREAYRLLLRLLQRIERGDPEAKEKLEEAIRLAEELGDEYVVESLEVLLRI

Molecular target: il2ra, P01589
Test: yeast display titration

Binder	apparent Kd
B1	inactive: no binding seen
B2	inactive: no binding seen
B3	inactive: no binding seen
B4	inactive: no binding seen
B5	inactive: no binding seen
B6	inactive: no binding seen
B7	inactive: no binding seen
B8	inactive: no binding seen
B9	inactive: no binding seen
B10	inactive: no binding seen
B11	inactive: no binding seen
B12	inactive: no binding seen
B13	inactive: no binding seen
B14	inactive: no binding seen
B15	inactive: no binding seen
B16	inactive: no binding seen
B17	inactive: no binding seen
B18	inactive: no binding seen

Taken from above:
In apparent Kd, B9 is listed with inactive: no binding seen
In apparent Kd, B11 is listed with inactive: no binding seen
